In assay [1] the target is GST-Cbl C (Cbl residues 358–906) (UniProt P22681). Description: pull-down; GST-Cbl fusion proteins from bacterial lysates bound to glutathione-Sepharose beads and washed, incubated with RIPA lysates (500 µg) of 293T cells expressing GFP-myosin IIA; Western blot with anti-GFP antibody; only the target purified. In general terms: In western blotting, separated proteins are transferred to a membrane and probed.

Protein sequences, listed by entry. Tags and fused reporters are not part of them.
UniProt P35579: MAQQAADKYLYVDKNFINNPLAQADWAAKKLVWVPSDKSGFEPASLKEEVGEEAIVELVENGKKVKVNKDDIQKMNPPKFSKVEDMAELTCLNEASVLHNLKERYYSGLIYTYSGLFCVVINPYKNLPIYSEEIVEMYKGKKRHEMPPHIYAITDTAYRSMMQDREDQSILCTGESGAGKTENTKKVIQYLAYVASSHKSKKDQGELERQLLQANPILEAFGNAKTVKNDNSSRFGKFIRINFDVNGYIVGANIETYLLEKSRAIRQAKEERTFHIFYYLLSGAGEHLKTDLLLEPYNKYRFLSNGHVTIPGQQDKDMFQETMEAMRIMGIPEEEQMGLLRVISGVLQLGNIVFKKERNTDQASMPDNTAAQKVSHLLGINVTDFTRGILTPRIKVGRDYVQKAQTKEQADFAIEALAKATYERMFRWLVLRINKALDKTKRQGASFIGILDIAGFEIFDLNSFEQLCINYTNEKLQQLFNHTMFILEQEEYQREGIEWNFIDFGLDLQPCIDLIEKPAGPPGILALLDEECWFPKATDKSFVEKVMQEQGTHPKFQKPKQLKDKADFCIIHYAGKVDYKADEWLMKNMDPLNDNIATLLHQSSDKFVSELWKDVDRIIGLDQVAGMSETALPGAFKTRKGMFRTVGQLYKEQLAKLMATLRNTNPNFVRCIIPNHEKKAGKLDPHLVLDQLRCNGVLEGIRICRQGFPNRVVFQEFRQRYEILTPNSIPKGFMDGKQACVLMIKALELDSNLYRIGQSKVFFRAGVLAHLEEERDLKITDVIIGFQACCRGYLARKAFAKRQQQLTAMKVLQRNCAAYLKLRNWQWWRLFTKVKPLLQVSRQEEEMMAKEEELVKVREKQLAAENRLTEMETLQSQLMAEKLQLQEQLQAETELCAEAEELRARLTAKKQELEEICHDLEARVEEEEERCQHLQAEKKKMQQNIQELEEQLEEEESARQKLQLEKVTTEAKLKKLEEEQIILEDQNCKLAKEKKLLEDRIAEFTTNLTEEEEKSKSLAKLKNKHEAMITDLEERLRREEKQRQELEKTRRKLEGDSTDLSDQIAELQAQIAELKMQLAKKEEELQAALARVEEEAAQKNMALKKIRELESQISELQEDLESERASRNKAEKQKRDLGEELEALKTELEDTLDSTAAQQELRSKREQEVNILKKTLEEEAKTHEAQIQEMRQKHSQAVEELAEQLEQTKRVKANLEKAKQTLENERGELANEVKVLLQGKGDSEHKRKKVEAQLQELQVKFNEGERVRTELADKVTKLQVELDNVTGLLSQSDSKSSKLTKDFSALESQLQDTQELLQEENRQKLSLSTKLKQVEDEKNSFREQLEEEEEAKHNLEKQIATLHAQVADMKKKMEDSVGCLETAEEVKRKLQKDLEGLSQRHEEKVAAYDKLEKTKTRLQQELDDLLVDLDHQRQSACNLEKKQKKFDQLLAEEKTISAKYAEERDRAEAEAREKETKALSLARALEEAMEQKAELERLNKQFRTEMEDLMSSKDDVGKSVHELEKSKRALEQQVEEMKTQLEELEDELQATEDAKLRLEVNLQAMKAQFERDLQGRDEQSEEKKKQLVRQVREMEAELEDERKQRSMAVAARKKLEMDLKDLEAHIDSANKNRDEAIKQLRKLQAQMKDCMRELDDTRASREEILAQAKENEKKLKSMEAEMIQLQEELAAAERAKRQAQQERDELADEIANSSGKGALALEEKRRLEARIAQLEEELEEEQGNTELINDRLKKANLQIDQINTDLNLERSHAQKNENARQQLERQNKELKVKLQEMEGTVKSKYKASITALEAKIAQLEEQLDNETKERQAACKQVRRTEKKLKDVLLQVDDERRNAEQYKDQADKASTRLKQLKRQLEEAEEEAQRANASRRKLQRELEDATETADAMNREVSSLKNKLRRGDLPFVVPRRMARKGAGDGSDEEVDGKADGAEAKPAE

Assay [2] addresses HA-tagged Cbl wild-type (UniProt P22681). Description: co-IP; HeLa cells transfected with HA-tagged Cbl constructs, serum starved 4 h, stimulated with TPA (100 ng/ml) 5 min; RIPA lysates immunoprecipitated with anti-HA antibodies, immunoblotted with myosin IIA antibody.
For assay [3], the target named is c-Cbl (human (endogenous in HMVEC-d)) (UniProt P22681). Description: co-IP; lysates (RIPA buffer) of serum starved HMVEC-d cells, uninfected or infected with KSHV (time course; 10 min for myosin blots; also heparin treated virus, also cells pretreated with 2 µg/ml cytochalasin D); immunoprecipitated with anti-c-Cbl antibody, 2 h at 4°C, protein A or G-Sepharose; Western blot with anti-p85 or myosin II isoform specific antibodies.

These are yes or no findings as the source states them, for the method shown. In cells and extracts the contact can be indirect. Some binding calls cover weakened binding; strength is not graded here.

Consider “GFP-tagged myosin IIA (from UniProt P35579 1-1960)”, for which the binding result in assay [1] was “binds”. “endogenous myosin IIA (HeLa) (from UniProt P35579 1-1960)”: in assay [2], the binding result is recorded as “binds”. For “non-muscle myosin heavy chain IIA (from UniProt P35579 1-1960)”, the binding entry in assay [3] is “binds”.

These data come from article PMC3009604.
